Source: PubChem BioAssay AID2685 (National Center for Advancing Translational Sciences (NCATS), 2010)
The campaign covered roughly 320,000 compounds. About 2,100 (0.66%) were called active. This list was built around the results that the source calls inconclusive (neither active nor inactive); the mix of calls is not that of the screen. The call rests on the fitted dose curve; in most records, active means well fitted inhibition curve with a large enough effect in the signal ratio, with a control signal flat (not every such curve was filed as active); inconclusive means small, poorly fitted or top-dose-only effect, or effect the other way, or a change in a side signal; inactive means flat fitted curve, though single readings scatter; the % refers to the signal ratio. Where the call is inconclusive, the potency comes from a doubtful curve fit.

Experiment: qHTS Assay for Lipid Storage Modulators in Drosophila S3 Cells
Details: BODIPY lipid droplet fluorescence, 18-24 h, cells fed with added oleic acid; lipid storage change, negative = inhibition: at 46.1 µM (top of the series) unless noted
In short: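 Drosophila S3 cells got compounds at several concentrations plus oleic acid (400 uM solution). Laser-scanning cytometry with 488 nm excitation read lipid droplets at 500-530 nm and cells at 575-640 nm. Percent activity was relative to 20 uM Triacsin C.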
On the % scale 0 is the no-effect control and ±100 the full control effect; potency means the concentration at half of the fitted maximal effect.

Row | Structure (SMILES) | lipid storage change, negative = inhibition | Potency
1 | CN(CC(=O)Nc1ccc(F)cc1)C(=O)CSc1ccc2c(c1)OCCO2 | inconclusive: 3.36% | –
2 | O=C(CSc1nc2ccccc2[nH]1)Nc1ccccc1N1CCOCC1 | inconclusive: 111% | –
3 | N#Cc1c(N)nc(SCc2ccccc2)c(C#N)c1-c1ccco1 | – | inconclusive: 29.1 µM [falling, single point]
4 | COc1cc(C2C(C#N)=C(N)Oc3cc(O)ccc32)cc2c1OCO2 (configuration not stated) | inconclusive: -3.56% | –
5 | COc1cccc(CC(=O)Nc2cc(S(=O)(=O)N3CCOCC3)ccc2N2CCOCC2)c1 | inconclusive: -25.7% | –
6 | Cc1noc(C)c1COc1ccc(C(=O)N2CCN(c3ccccc3O)CC2)cc1 | inconclusive: -70.8% | –
7 | Cc1cc(NC(=O)CN2CCN(c3ccccn3)CC2)ccc1Br | inconclusive: 26.4% | –
8 | CC(=O)c1cccc(NC(=O)Nc2cnn(Cc3ccc(Cl)cc3Cl)c2)c1 | – | inconclusive: 0.82 µM [rising, single point]
9 | COC(=O)CN(c1nc(C)c(Cl)c(OC)n1)S(=O)(=O)c1ccc(C)cc1 | inconclusive: 21.5% | –
10 | CCCn1c(SCC(=O)Nc2nnc(CC)s2)nnc1-c1ccco1 | inconclusive: 82.1% | –
11 | CCCc1nc(-c2ccccc2O)n(-c2ccccc2)n1 | – | inconclusive: 29.1 µM [activator, single point]
12 | O=C(Nc1nnc(-c2ccc3c(c2)CCCC3)o1)c1ccccc1Cl | inconclusive: -0.36% | –
13 | CCCc1c(C)[nH]c2ccc(C(=O)O)cc2c1=S | inconclusive: 6.7% | –
14 | CC(=O)N1c2ccccc2C(=O)C1N1CCCCC1 (configuration not stated) | inconclusive: -47.8% | –
15 | CCOc1ccc(/C=C/C(=O)OCC(=O)Nc2cccc(S(=O)(=O)N3CCCC3)c2)cc1 | inconclusive: -50.1% | –
16 | COc1ccccc1CC(=O)N1CCN(c2ccccc2F)CC1 | inconclusive: 32% [activator] | –
17 | Cc1ccnc(NC(=O)c2cccc(NC(=O)CC3SC(N4CCCCC4)=NC3=O)c2)c1 (configuration not stated) | – | inconclusive: 1.84 µM [falling, partial curve, poor fit]
18 | Cc1cc(NC(=O)c2noc3c2CCCC3)n(-c2ccccc2)n1 | inconclusive: -15.5% | –
19 | Cc1cc(C)n(CC(=O)NCc2ccccc2)c(=O)c1C#N | inconclusive: 14% | –
20 | CCCNc1nc2c(c(=O)[nH]c(=O)n2C)n1CCc1ccccc1 | inconclusive: 47.1% | –
21 | Cc1nc(N)sc1-c1csc(Nc2ccccn2)n1 | inconclusive: 11.5% | –
22 | COc1ccc(/C=N/NC(=O)C[n+]2ccccc2)c(OC)c1 | inconclusive: -59.3% | –
23 | CC(=O)OCCc1c(C)nc2nc[nH]n2c1=O | – | active: 29.1 µM
24 | CCC(C)(C)n1nnnc1C(c1cc2cc(C)cc(C)c2[nH]c1=O)N1CCCC1 (configuration not stated) | inactive | –
25 | COc1ccc(N(CC(O)Cn2c3ccccc3c3ccccc32)S(=O)(=O)c2ccccc2)cc1 (configuration not stated) | inconclusive: 22.8% | –
26 | c1coc(CNC2CCCCCCC2)c1 | inconclusive: -21% | –

Row | Structure (SMILES) | lipid storage change, negative = inhibition | Potency
27 | O=C(Cn1[nH]c(=O)c2ccccc2c1=O)NNC(=O)c1ccccc1 | inconclusive: 17% | –
28 | O=C(Nc1ccc(Cl)cc1)N[C@@H]1c2c(ccc3ccccc23)OC[C@@H]1CO | inconclusive: -30.5% | –
29 | CCc1ccc(NS(=O)(=O)c2cc3c(cc2C)n(C)c(=O)c(=O)n3C)cc1 | – | inconclusive: 29.1 µM [falling, single point]
30 | CCOc1ccccc1N(CC(=O)N1CCCCCC1)S(C)(=O)=O | inconclusive: 1.28% | –
31 | Nc1nncn1C(=O)c1cc(Br)ccc1Cl | inconclusive: -19.1% | –
32 | COc1ccc(OC)c(NC(=O)CC2(CC(=O)O)CCCC2)c1 | – | inconclusive: 29.1 µM [activator, single point]
33 | CCOc1ccc(S(=O)(=O)N2CCN(S(=O)(=O)c3ccc(C(C)=O)cc3)CC2)cc1 | – | inconclusive: 2.06 µM [falling, full curve]
34 | Cc1csc(Sc2nc3c(c(=O)[nH]c(=O)n3C)n2CCCc2ccccc2)n1 | – | inconclusive: 0.82 µM [activator, full curve, poor fit]
35 | COc1ccc(CCNC(=O)C2CC(=O)N(c3ccc(C)cc3)C2)cc1 (configuration not stated) | – | inconclusive: 25.9 µM [activator, partial curve, poor fit]
36 | COc1ccccc1N1CCN(C(=O)CN(c2cc(C)cc(C)c2)S(C)(=O)=O)CC1 | inconclusive: -4.35% | –
37 | CN(CC(=O)Nc1ccc(F)cc1)C(=O)c1cccc(S(=O)(=O)N2CCN(c3ccc(F)cc3)CC2)c1 | inconclusive: 9.55% | –
38 | Cc1ccc(-c2ccc(=O)n(CC(=O)NCCCN3CCCCC3)n2)cc1 | inconclusive: -14.8% | –
39 | O=C(Nc1ccc(F)cc1F)c1ccc2c(c1)[nH]c(=O)n2Cc1ccc(F)cc1 | inconclusive: -36.8% | –
40 | O=c1oc2ccccc2c2c1ncn2CCN1CCOCC1 | inconclusive: -0.183% | –
41 | NS(=O)(=O)c1ccc(CCNC(=O)c2ccncc2)cc1 | inconclusive: 38% | –
42 | CCOc1cccc(/C=N/NC(=S)Nc2ccccc2[N+](=O)[O-])c1O | inconclusive: -11.2% | –
43 | Cc1ccc(S(=O)(=O)NNC(=O)Nc2cccc(C)c2C)c(C)c1 | – | inconclusive: 3.26 µM [activator, partial curve, poor fit]
44 | COc1ccc(N2C(=O)CC(N3CCN(c4cccc(Cl)c4)CC3)C2=O)cc1 (configuration not stated) | inactive | –
45 | O=C(/C=C/c1c(Cl)cccc1Cl)N1CCOCC1 | – | inconclusive: 29.1 µM [falling, single point]
46 | O=C(NC(=O)N1CCCC1)c1csnn1 | inconclusive: -37.9% | –
47 | O=C(COc1ccc2ccccc2c1)NNC(=O)c1cnccn1 | inconclusive: -44.4% | –
48 | CC1CC(=O)N(CC(=O)Nc2ccc3c(c2)OCCO3)c2ccccc2S1 (configuration not stated) | – | inconclusive: 29.1 µM [activator, single point]
49 | CCN(CC)C(=O)C1CCCN(Cc2ccccc2)C1 (configuration not stated) | – | inconclusive: 0.259 µM [falling, full curve]
50 | CN(C)c1ccc(C(=O)OCC#CCSc2nnc(-c3cccc4ccccc34)o2)cc1 | – | inconclusive: 0.058 µM [activator, full curve, poor fit]
51 | Cc1ccc(N(Cc2cc3ccc(C)cc3[nH]c2=O)S(=O)(=O)c2ccccc2)c(C)c1 | – | inconclusive: 29.1 µM [activator, single point]
52 | O=C(NCCc1ccccc1)C1CCN(S(=O)(=O)c2cccs2)CC1 | inconclusive: 26.4% | –

Row | Structure (SMILES) | lipid storage change, negative = inhibition | Potency
53 | Cc1cc(/C=N/O)c(C)n1-c1cccc(Cl)c1 | inconclusive: -75.3% [cytotoxic] [at 0.369 µM] | –
54 | O=C(NNC(=O)c1csc(N2CCOCC2)n1)c1ccc(Cl)nc1 | – | inconclusive: 0.0058 µM [falling, full curve]
55 | CC(C)N1CCN(Cc2ccc(Oc3ncccn3)cc2)CC1CCO (configuration not stated) | – | inconclusive: 0.082 µM [falling, full curve, poor fit]
56 | CCC(C)[C@H](NC(=O)N1CC(=O)Nc2ccccc21)C(=O)N1CCC(C(=O)O)CC1 (some centres not stated) | inconclusive: -41.5% | –
57 | CCOC(=O)CCC(NC(=O)c1ccc(NCN2C(=O)c3ccccc3C2=O)cc1)C(=O)OCC (configuration not stated) | inconclusive: 76.4% | –
58 | CC1CCN(CCOc2ccc(Cl)c(Cl)c2)CC1 | inconclusive: -58% | –
59 | Cc1cc(NC(=O)C(C)SCC(=O)OCc2ccc([N+](=O)[O-])cc2)no1 (configuration not stated) | inconclusive | –
60 | O=C(Nc1c(C(=O)O)oc2ccc(Br)cc12)c1ccccc1 | inconclusive: -0.239% | –
61 | Cc1cc(OCn2ccc(C(=O)O)n2)ccc1Cl | inconclusive: -31.1% | –
62 | COc1ccc(C2CC(c3ccccc3)=NN2c2ccc(Cl)c(C(=O)O)c2)cc1 (configuration not stated) | inconclusive: -19% | –
63 | O=C(c1cc2ccccc2oc1=O)N(Cc1ccco1)C1CCS(=O)(=O)C1 (configuration not stated) | – | inconclusive: 5.17 µM [falling, single point]
64 | Cc1ccc(Oc2ccc3c(c2)C(=O)N(c2cccc4cccnc24)C3=O)cc1 | inconclusive: -23.5% | –
65 | COc1ccc(CN2CCNC(=O)C2CC(=O)N(C)Cc2cc(C)no2)cc1OC (configuration not stated) | – | inconclusive: 23.1 µM [activator, single point]
66 | CCOc1ccc(-n2c(-c3ccccc3)nnc2-c2ccccc2)cc1 | inconclusive: -9.68% | –
67 | COc1ccccc1C(=O)NC(CCSC)C(=O)NCC(c1cccs1)N(C)C (configuration not stated) | inconclusive | –
68 | CCCC(=O)c1cc2c(cc1NC(=O)CC)OCCO2 | inconclusive: -33.4% [at 0.369 µM] | –
69 | Cc1ccccc1NC(=O)C1CCCN(c2ncnc3onc(-c4ccc(F)cc4)c23)C1 (configuration not stated) | – | inconclusive: 29.1 µM [activator, single point]
70 | Cc1oc2ccc(OCc3ccc(F)cc3)cc2c1C(=O)O | inconclusive: 2.07% | –
71 | O=C(Nc1ccccc1)c1ccco1 | inconclusive: -45% | –
72 | COc1ccccc1NC(=O)C(C)n1cnc2c(oc3nc4c(cc32)CCCC4)c1=O (configuration not stated) | – | inconclusive: 6.51 µM [activator, single point]
73 | c1coc(-c2nc3c4c5c(sc4ncn3n2)CCCC5)c1 | – | inconclusive: 1.64 µM [activator, partial curve]
74 | Cc1ccc(NC(=O)C2CCN(S(=O)(=O)c3cccs3)CC2)c(O)c1 | inconclusive: 16.9% | –
75 | CC1CC(C)CN(C(=O)Cn2c(=O)n(CCCC(=O)NCc3ccco3)c(=O)c3sccc32)C1 (configuration not stated) | inconclusive: -23.3% | –
76 | Cn1c(=O)[nH]c(=O)c2c1nc(NCc1ccccc1)n2CCCc1ccccc1 | – | inconclusive: 2.06 µM [activator, partial curve]
77 | CN(C)/C=C(/C(=O)c1ccc(Cl)cc1Cl)S(=O)(=O)c1ccccc1 | inconclusive: -30% | –

A draw from above in order of number of heavy atoms, largest number first.
Row | Structure (SMILES) | lipid storage change, negative = inhibition | Potency
25 | COc1ccc(N(CC(O)Cn2c3ccccc3c3ccccc32)S(=O)(=O)c2ccccc2)cc1 (configuration not stated) | inconclusive: 22.8% | –
51 | Cc1ccc(N(Cc2cc3ccc(C)cc3[nH]c2=O)S(=O)(=O)c2ccccc2)c(C)c1 | – | inconclusive: 29.1 µM [activator, single point]
8 | CC(=O)c1cccc(NC(=O)Nc2cnn(Cc3ccc(Cl)cc3Cl)c2)c1 | – | inconclusive: 0.82 µM [rising, single point]
42 | CCOc1cccc(/C=N/NC(=S)Nc2ccccc2[N+](=O)[O-])c1O | inconclusive: -11.2% | –
43 | Cc1ccc(S(=O)(=O)NNC(=O)Nc2cccc(C)c2C)c(C)c1 | – | inconclusive: 3.26 µM [activator, partial curve, poor fit]
